Measured values: PubChem BioAssay AID2685 (National Center for Advancing Translational Sciences (NCATS), 2010)
Some of the results follow. These are further read-outs of the screen, such as a control signal, another cell line or another target. No call is given for them. Most of these compounds were active or inconclusive in the main read-out, so they are no random draw. Potencies come from curve fits of mixed quality, noted in brackets.

Assay: qHTS Assay for Lipid Storage Modulators in Drosophila S3 Cells;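 for cell number change: cells counted by Cell Tracker Red CMTPX staining in the red channel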
Details: BODIPY lipid droplet fluorescence, 18-24 h; for cell number change: measured here: cell count max response, cells fed with added oleic acid
Procedure, shortened: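 Drosophila S3 cells got compounds at several concentrations plus oleic acid (400 uM solution). Laser-scanning cytometry with 488 nm excitation read lipid droplets at 500-530 nm and cells at 575-640 nm. Percent activity was relative to 20 uM Triacsin C.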

[1] = measured here: lipid fluorescence (Fed channel) AC50, cells fed with added oleic acid
[2] = measured here: cell number channel AC50, cells fed with added oleic acid

Row | Structure (SMILES) | cell number change [%] | AC50 [1] | AC50 [2]
1 | Cc1nc2ccc(S(=O)(=O)NCC(=O)NCCN3CCCCC3C)cc2s1 (stereo not given) | -5.17 | 6.51 µM [falling, single point] | –
2 | COc1ccc(S(=O)(=O)N2CCC(C(=O)NCc3ccc(C)cc3)CC2)cc1 | -14.1 | – | –
3 | COC(=O)c1nn(Cc2ccccc2)c(=O)c2ccccc12 | 71.2 | 2.06 µM [rising, partial curve, poor fit] | 8.2 µM [rising, partial curve]
4 | NNc1ccc(Cl)nn1 | 8.51 | 1.84 µM [rising, partial curve, poor fit] | –
5 | O=C(CSc1n[nH]c(-c2cccs2)n1)N1CCN(S(=O)(=O)c2ccccc2)CC1 | -27.4 | 6.51 µM [rising, single point] | –
6 | CC(C)(C)C(=O)/C(=C\c1ccc([N+](=O)[O-])cc1)n1cncn1 | -64.3 | 6.51 µM [falling, partial curve] | 10.3 µM [falling, partial curve]
7 | CN(CCC#N)C(=S)Nc1ccc(S(=O)(=O)N2CCOCC2)cc1 | 87.3 | 0.146 µM [rising, full curve] | 0.116 µM [rising, full curve]
8 | COc1cccc(N2CCN(C(=O)c3cc4ccc(OC)cc4[nH]3)CC2)c1 | 2.59 | 0.082 µM [rising, full curve] | –
9 | COc1ccc(F)cc1S(=O)(=O)NCC1CCCO1 (stereo not given) | 19.6 | – | –
10 | CN1N=C(/C=C/c2ccccc2)CCC1=O | 0.271 | – | –
11 | CC1=NN(/C(=N\c2nnc(C)s2)Nc2ccc(C(C)(C)C)cc2)[C@H](c2ccc(C)cc2)S1 | -23.8 | 23.1 µM [falling, single point] | –
12 | O=C(O)CC1SC(N/N=C/c2ccc(Br)cc2)NC1=O (stereo not given) | -30.2 | 32.6 µM [falling, partial curve, poor fit] | 23.1 µM [falling, single point]
13 | COc1ccc(CN2CCN(Cc3cc(=O)oc4cc(C)ccc34)CC2)c(OC)c1OC | 16.2 | – | –
14 | O=C(CO/N=C/c1ccc2c(c1)OCO2)Nc1cccc(Br)c1 | 31.8 | 0.231 µM [rising, full curve] | 8.2 µM [rising, partial curve]
15 | Cc1ccc(C)c(OCCC(=O)OCC(=O)NC2CC2)c1 | -23.5 | – | –
16 | CNc1oc(-c2ccccc2Cl)nc1P(=O)(c1ccccc1)c1ccccc1 | -37.8 | 29.1 µM [falling, single point] | 29.1 µM [falling, single point]
17 | CCOC(=O)C1CCCN(C(=O)c2ccc3nc(-c4ccccc4)c(-c4ccccc4)nc3c2)C1 (stereo not given) | -19.1 | 6.51 µM [falling, single point] | –
18 | CCc1nc(-c2cc3ccc(C)cc3[nH]c2=O)no1 | 16.8 | 29.1 µM [rising, partial curve] | –
19 | Cc1cc(NS(=O)(=O)c2ccc(NC(=O)COc3ccccc3[N+](=O)[O-])cc2)no1 | -13 | – | 7.31 µM [rising, single point]
20 | CC1Cc2ccccc2N1S(=O)(=O)c1cccc(C(=O)c2nccn2C)c1 (stereo not given) | -5.97 | 2.06 µM [rising, partial curve] | –

Looked up above:
For cell number change [%], `CN1N=C(/C=C/c2ccccc2)CCC1=O` has the entry 0.271
For AC50 [1], `CC(C)(C)C(=O)/C(=C\c1ccc([N+](=O)[O-])cc1)n1cncn1` has the entry 6.51 µM [falling, partial curve]
For cell number change [%], `CC1Cc2ccccc2N1S(=O)(=O)c1cccc(C(=O)c2nccn2C)c1` (stereo not given) has the entry -5.97

Carrying on:

Row | Structure (SMILES) | cell number change [%] | AC50 [1] | AC50 [2]
21 | COc1ccccc1CNC(=O)CCCc1cn(C)c2ccccc12 | – | – | 0.651 µM [rising, full curve, poor fit]
22 | CCN(CC(=O)Nc1c(F)cccc1F)C(=O)Cn1[nH]c(=O)c2ccccc2c1=O | 23.4 | 20.6 µM [rising, single point] | –
23 | Cc1ccc(-c2nc(C)sc2CC(=O)Nc2nnc(C)s2)cc1 | 37.1 | – | –
24 | Cc1cc(OCC(=O)NCc2cccnc2)ccc1[N+](=O)[O-] | 10.4 | – | –
25 | Cc1ccc(S(=O)(=O)c2nnn3c2nc(Nc2cccc(C)c2)c2ccccc23)cc1 | 21.1 | 11.6 µM [rising, partial curve] | –
26 | CN(C)C(CNC(=O)CNC(=O)c1ccc2ccccc2c1)c1ccccc1 (stereo not given) | -22.4 | – | –
27 | O=C(N/C(=C\c1cccc(Br)c1)C(=O)N1CCCCC1)c1ccco1 | 25.8 | – | –
28 | O=C(COC(=O)/C=C/c1cccc(C(F)(F)F)c1)NC(=O)NCc1ccccc1 | 30.1 | – | 32.6 µM [rising, single point]
29 | COc1cc(C(=O)Oc2ccc3ccc(O)cc3c2)cc(OC)c1OC | -23.9 | 29.1 µM [falling, single point] | –
30 | COc1cccc(COC(=O)CSCC(=O)Nc2cccc(C)c2)c1OC | 5.09 | 1.46 µM [rising, partial curve] | –
31 | Cc1ccc(OCC(O)CNC(C)c2ccccc2)cc1C (stereo not given) | 49.6 | 29.1 µM [rising, single point] | 29.1 µM [rising, single point]
32 | C=CCn1cc(C(=O)NCCN(CC)CC)c(=O)c2cc(S(=O)(=O)N3CCCCCC3)ccc21 | -7.63 | 3.26 µM [rising, single point] | –
33 | CCOc1ccccc1N1CC(C(=O)Nc2ccc3c(c2)OCCO3)CC1=O (stereo not given) | -0.729 | – | –
34 | Cc1c(C(C)C[C@H](C)O)oc(=O)c2c1Oc1c(C)c(C(C)C[C@H](C)O)oc(=O)c1C2 (stereo not given in full) | -17.4 | 0.116 µM [falling, full curve, poor fit] | 0.164 µM [falling, full curve, poor fit]
35 | CC(=O)c1ccc(CCCCCCCCCC(=O)O)s1 | -1.66 | – | –
36 | Cc1ccc(C(=O)N2NC(c3ccc(F)cc3)C3C(=O)N(c4ccc(C)cc4)C(=O)C32)cc1 (stereo not given) | 30.5 | – | 29.1 µM [rising, single point]
37 | S=c1[nH]nc(COc2ccccc2)n1/N=C/c1cccc(Cl)c1Cl | -6.94 | – | –
38 | Cc1cc(C)c(S(=O)(=O)N2CCCCC2CCNC(=O)C(=O)NCc2cccnc2)c(C)c1 (stereo not given) | 133 | 0.00517 µM [falling, full curve, poor fit] | 18.4 µM [rising, single point]
39 | Cc1ccc(CNC(=O)CCS(=O)(=O)c2cc(Br)cc3c2N(C(=O)C2CC2)CC3)o1 | -27.3 | 3.66 µM [falling, partial curve] | –
40 | CSc1ncccc1C(=O)NCC1CCCCC1 | – | 20.6 µM [rising, single point] | –
